Measurements reported in publication PMC9262583.
Results are given in words; binding and its absence hold for the method and conditions named. In cells and extracts the contact can be indirect. A yes stands for co-enrichment or nearness to the bait. Other partners may have been found. Where a sequence is shown, tags or fusion partners need not be part of it.

Sequences of proteins named here, by UniProt entry; tags and fusion partners are left off.
UniProt Q9NFU0: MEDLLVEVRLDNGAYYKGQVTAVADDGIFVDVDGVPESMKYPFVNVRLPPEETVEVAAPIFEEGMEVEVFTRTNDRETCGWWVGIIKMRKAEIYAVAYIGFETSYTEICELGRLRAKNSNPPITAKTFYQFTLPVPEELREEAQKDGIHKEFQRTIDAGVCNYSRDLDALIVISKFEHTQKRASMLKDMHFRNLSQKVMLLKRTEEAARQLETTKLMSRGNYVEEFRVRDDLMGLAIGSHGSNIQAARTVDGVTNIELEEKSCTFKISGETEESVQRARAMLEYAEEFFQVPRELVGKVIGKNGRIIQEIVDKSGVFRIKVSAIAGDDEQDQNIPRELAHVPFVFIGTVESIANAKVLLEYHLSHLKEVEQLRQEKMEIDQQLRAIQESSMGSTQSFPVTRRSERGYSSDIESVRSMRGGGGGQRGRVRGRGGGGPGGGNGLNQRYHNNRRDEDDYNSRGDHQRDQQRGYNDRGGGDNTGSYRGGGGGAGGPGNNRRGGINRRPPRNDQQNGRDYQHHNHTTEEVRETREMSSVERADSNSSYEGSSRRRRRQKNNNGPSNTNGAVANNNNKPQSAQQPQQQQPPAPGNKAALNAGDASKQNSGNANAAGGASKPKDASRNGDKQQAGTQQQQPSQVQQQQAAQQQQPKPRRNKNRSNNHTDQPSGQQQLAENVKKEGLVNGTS

B1: Caprin (protein, UniProt Q9I7D3 1-961)
chain: MPSAANTATVTAAIATTVAASASNTNNNSVSKEKRSSIISLGGSVIPGTAVAAGAGVATTNGQSNSSAAATADGSQTDLASSNNNGNAAKSKANAVSAAAVVPEPYNPLKQLLVTIEHKIRNLEKRKTKLESYRAIQSSGKELSGDQASAVAKYDAVLANLEFARELAKHIQQQSKEAEKEQKKQARKDNLAKTIAETAKIREVLIIQNVLNCFNDDQVRSDFLNGENGAKKLENTELELLEKFFIETQTRRPETADDVSFIATAQKSAELFYSTINARPKSFGEVSFEKLRSLFQQIQDSGYLDKYYLVPLAENAVANSTDSGTGSGDGESGDLLNDGSGELDAELPSEPSARNSLEEGLDKLHLGVQAELDQHQSYQQQQERPSHLLEPQHQRAPSLEHQQNSMVQQVSTQVYQAAPQAGGTTTPVHVLYAPAPPAQQQPQQPPPHPHQLLSSPVNLQALQTGTAAPPAQQQQPHPTHFAPNVRAVEQNYFKQPPQHPQGPGIQAPQTPQQQQFMQHSRPLAEVLGTGRFHFLQDSELDNPEALAPPPPTNQGLVFEQQPQQPNHVEEPTQAILTLTFTNQSFPSQQPQPQQQGPQQQQQLFSPVLIHEQRQQPPQQQPQPMLIMPRLPTQQPQQPAPQGIGMQAGDVTSGFSYENAVVSYEQQIQQQLKQQQQQQQQQQQNLQQLDEPSSVNSSSSVGAGGDVENNEWHARNNDTNAAATAALTNVLKGETTQATPPAPPTKWSSEMNAMSSAASNGSSNTSHKQEWATPRDHSTGGGNSGYADNNESNNHWNNSQGDGRRNSGNYQRRGGDRDNRDRDQGGRGDERRNGGDRGNYRSRQYGNSSNTNGRNSGNSSGVYFRNNESGNGGGNNYYQNGGGGGGTYNKESRYESSGGGGGSYRGQRGGNQQRNVNGSYGGGRPMGDRGRGGAGNQGGGGGGYINRQNQSQRMPLGLENKN

Molecular target: T1, GFP-tagged Glorund (GFP-Glo) (Drosophila) (UniProt Q9VGH5)
T1 sequence: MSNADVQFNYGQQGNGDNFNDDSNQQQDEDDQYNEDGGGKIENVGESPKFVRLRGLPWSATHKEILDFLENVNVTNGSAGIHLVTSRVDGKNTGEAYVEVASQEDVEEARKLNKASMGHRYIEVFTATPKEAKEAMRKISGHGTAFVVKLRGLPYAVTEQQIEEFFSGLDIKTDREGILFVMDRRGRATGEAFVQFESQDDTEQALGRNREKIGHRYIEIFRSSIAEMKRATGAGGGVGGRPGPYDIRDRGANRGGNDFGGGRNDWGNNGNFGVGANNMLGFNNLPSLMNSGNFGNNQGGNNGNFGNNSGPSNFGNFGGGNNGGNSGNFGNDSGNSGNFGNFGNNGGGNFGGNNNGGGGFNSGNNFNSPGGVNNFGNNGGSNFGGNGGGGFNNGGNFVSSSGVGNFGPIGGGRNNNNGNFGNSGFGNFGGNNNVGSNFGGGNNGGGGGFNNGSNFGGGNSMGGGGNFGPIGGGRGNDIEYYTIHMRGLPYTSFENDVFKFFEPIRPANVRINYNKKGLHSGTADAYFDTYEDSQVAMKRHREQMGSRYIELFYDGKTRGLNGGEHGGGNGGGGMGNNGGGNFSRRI
Experiment: affinity purification with mass spectrometry; GFP-Trap_A immunoprecipitation of GFP-Glo from RNase-treated late-ovary extract, LC-MS/MS; native IP (against MCP-GFP control) and DSP-crosslinked IP washed with 1 M NaCl (against un-crosslinked control); hits common to both, a single experiment for each condition

Molecule	binding
Drosophila fragile X mental retardation protein (dFMRP), endogenous (from UniProt Q9NFU0 1-684)	binds
eIF4E (Drosophila (endogenous in late-ovaries))	binds
B1	binds
